Experimental data from ChEMBL document CHEMBL1151922, “Structure-activity relationships of 3,5-disubstituted benzamides as glucokinase activators with potent in vivo efficacy” (Bioorg Med Chem, 2009).

Assay: Octanol-water distribution coefficient, log D at pH 7.4 by HPLC-MS analysis

Row | Compound | logD
1 | CC(CO)Oc1cc(Oc2ccc(S(C)(=O)=O)cc2)cc(C(=O)Nc2nccs2)c1 (configuration not stated) | 2.7
2 | C[C@@H](CO)Oc1cc(Oc2ccc(S(C)(=O)=O)cc2)cc(C(=O)Nc2nccs2)c1 | 2.7
